Patent publication US10214710B2, “Intercalated bleach compositions, related methods of manufacture and use” (The Clorox Company, priority 2013, dated 2019)

Assay: Relative ratings of solid hypochlorite bleach products
Conditions: for Available Chlorine / Formula Flexibility / Minimal Odor: relative rating; for Total Pts: sum of the six ratings

Compound	Available Chlorine	Formula Flexibility	Minimal Odor	Total Pts
[Ca+2].[O-]Cl.[O-]Cl [Calcium hypochlorite, calcium hypochlorite]	5	3	1	18
O=C1CN(Cl)C(=O)N1Cl [Dichlorohydantoin]	5	1	3	16
[Li+].[O-]Cl [Li(OCl)2, lithium hypochlorite]	3	1	1	14
Trichloromelamine	5	1	1	16
sodium hypochlorite phosphate adduct [Na(OCl)2 phosphate adduct]	1	3	3	16
